Experimental findings from paper PMC6719327 (Applied Microbiology and Biotechnology, 2019) are described below.

Amino acid sequences for entries named in this document (tags omitted). Residues count along the entry.
UniProt P25101, residues 21-427: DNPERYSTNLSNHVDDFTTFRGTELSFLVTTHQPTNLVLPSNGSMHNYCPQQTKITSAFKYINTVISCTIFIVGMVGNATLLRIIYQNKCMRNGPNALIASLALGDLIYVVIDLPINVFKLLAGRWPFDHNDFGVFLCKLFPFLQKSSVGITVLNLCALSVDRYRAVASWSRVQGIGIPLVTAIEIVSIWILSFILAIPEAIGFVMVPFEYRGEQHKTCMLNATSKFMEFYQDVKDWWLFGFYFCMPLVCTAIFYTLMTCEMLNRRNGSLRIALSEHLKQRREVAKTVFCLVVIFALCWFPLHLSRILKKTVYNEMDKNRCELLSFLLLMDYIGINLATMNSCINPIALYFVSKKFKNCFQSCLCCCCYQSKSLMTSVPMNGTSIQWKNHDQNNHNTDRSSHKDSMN
UniProt Q15116, residues 32-160: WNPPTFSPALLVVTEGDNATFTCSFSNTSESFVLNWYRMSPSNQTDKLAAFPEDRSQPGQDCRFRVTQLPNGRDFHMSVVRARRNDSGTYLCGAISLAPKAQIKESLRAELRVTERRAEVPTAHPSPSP

In the assay the target is T1, ETaR-GFP (UniProt P25101).
T1 construct: endothelin A receptor (ETaR) with GFP fused to its C-terminus (in cytosol); also called ETaR cells; ETaR-GFP cells; source: CHO cells stably expressing ETaR-GFP (provided by Gmax Biopharm LLC; clone S-33 for vesicles); on cells, and in vesicles prepared from them; not shown: GFP, C-terminal, kept
Nature of the assay: flow cytometry on cells; ETaR-GFP cells mixed 1:1 with cells displaying the antibody or PD1, 30 min at 4 °C, labelled with anti-human-IgG-APC; also at pH 6.5 and pH 7.5. For orientation: A flow cytometer gives signals particle by particle.

No constants are given. Whether binding was seen depends on the method and setting.

Turning to “PD1-Fc (wild type) displayed on CHO cells (from UniProt Q15116 32-160) (Fc fusion)”, the binding result was “no binding”.
